This note sets out measurements from article PMC4152239.

Amino acid sequences for entries named in this document (tags omitted). Residues count along the entry.
UniProt O08852, residues 24-4293: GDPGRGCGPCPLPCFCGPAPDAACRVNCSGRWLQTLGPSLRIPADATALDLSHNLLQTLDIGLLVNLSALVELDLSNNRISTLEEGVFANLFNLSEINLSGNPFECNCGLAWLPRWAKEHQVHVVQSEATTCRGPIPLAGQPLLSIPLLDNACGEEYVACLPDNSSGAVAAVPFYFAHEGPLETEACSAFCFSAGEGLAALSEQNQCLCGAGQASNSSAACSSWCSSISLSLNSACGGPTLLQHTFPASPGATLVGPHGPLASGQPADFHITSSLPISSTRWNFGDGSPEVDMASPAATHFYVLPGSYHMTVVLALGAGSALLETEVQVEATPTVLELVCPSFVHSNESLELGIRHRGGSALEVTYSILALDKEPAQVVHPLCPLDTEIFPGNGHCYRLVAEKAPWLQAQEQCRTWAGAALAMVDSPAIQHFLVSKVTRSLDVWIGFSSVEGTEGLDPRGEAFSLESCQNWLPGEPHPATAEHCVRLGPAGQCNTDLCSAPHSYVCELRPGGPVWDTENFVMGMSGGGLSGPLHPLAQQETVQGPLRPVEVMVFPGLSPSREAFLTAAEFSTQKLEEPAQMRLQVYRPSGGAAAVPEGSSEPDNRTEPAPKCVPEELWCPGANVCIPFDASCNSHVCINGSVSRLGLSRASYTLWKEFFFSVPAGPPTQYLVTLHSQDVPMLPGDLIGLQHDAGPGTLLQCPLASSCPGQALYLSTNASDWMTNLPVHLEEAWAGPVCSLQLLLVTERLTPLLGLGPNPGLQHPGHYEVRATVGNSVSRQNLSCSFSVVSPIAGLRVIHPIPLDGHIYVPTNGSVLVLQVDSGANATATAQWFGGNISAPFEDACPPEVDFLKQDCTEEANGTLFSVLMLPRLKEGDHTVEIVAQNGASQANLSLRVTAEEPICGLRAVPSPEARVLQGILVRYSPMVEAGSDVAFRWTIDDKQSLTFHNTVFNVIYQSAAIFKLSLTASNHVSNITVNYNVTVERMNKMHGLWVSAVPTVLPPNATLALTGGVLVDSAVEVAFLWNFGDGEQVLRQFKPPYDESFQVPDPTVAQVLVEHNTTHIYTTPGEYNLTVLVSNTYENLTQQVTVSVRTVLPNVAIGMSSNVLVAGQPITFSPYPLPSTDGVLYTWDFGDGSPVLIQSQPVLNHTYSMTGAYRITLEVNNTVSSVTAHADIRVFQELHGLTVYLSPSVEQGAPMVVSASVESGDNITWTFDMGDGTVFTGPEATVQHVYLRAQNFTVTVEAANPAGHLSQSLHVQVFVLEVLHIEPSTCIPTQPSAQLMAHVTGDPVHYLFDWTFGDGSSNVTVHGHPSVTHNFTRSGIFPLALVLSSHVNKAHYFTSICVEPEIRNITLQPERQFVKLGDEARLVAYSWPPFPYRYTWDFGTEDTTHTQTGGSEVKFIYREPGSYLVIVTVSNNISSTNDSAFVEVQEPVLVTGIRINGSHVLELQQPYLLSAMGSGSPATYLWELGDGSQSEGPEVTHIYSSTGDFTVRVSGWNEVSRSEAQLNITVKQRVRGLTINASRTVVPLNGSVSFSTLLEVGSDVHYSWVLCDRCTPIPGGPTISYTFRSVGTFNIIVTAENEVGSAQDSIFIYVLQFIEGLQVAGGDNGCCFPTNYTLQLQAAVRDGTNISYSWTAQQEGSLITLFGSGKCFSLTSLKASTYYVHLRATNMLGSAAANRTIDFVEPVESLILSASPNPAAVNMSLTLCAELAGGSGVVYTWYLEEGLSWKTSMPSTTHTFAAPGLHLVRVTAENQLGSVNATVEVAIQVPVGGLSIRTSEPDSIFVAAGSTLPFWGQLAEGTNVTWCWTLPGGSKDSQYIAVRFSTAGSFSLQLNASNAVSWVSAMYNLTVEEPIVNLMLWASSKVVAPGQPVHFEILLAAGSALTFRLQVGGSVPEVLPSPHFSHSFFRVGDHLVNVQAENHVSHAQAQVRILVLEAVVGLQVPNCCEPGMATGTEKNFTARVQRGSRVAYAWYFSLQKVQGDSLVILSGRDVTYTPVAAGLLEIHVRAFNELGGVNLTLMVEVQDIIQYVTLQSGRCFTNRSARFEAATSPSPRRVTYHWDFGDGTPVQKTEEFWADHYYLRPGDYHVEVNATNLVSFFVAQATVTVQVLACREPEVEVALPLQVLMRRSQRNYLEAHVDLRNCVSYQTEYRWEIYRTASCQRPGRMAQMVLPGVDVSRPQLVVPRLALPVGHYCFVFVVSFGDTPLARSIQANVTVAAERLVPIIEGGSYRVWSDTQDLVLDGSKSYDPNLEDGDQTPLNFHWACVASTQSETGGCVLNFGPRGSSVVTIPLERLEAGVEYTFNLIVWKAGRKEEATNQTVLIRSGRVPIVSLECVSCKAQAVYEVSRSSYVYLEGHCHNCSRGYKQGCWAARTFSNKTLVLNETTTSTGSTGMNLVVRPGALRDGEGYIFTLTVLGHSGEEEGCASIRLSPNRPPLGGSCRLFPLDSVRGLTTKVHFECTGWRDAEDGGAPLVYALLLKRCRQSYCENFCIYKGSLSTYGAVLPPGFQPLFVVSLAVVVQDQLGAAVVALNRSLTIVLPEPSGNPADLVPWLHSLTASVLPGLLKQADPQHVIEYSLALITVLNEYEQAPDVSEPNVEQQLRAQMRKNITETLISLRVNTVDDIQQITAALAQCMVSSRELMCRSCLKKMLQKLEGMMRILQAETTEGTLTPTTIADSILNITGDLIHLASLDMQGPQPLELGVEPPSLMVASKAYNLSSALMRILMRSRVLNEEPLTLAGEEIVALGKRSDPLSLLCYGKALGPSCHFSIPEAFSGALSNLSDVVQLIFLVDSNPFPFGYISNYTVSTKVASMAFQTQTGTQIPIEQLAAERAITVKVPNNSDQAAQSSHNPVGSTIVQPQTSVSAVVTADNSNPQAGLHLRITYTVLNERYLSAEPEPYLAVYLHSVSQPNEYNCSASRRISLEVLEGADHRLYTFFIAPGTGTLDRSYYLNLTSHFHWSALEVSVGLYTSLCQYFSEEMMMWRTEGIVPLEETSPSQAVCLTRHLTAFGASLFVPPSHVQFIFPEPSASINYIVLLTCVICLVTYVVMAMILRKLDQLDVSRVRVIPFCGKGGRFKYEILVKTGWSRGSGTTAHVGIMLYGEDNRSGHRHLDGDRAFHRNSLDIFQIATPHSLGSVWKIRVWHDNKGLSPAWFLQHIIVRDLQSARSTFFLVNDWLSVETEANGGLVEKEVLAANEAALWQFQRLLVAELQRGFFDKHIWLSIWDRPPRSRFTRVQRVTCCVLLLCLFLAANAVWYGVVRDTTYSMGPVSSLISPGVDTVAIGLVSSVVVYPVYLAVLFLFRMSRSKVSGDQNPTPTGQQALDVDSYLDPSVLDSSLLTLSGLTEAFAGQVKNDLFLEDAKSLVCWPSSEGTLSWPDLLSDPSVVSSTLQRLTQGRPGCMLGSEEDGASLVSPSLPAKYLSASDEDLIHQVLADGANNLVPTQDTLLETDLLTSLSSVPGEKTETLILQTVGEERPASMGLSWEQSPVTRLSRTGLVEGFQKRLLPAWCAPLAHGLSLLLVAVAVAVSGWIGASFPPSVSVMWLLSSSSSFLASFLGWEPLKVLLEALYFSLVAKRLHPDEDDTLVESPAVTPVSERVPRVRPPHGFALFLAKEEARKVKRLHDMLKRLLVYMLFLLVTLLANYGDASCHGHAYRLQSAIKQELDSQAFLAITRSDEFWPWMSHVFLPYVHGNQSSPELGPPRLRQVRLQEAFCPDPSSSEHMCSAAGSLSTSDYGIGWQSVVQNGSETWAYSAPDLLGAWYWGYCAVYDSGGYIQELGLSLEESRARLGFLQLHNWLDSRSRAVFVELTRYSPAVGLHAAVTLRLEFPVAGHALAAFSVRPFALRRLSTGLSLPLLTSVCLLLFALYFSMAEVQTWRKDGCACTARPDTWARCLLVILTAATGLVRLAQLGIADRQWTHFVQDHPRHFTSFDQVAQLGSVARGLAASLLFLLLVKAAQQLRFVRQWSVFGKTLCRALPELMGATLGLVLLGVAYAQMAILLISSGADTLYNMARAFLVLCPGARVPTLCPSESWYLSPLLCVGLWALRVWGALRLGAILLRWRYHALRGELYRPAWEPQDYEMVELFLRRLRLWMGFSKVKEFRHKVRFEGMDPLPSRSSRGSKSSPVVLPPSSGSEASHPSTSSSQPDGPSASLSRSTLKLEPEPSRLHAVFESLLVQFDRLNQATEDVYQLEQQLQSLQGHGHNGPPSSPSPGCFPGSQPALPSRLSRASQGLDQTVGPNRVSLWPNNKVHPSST

In experiment [1] the target is polycystin-1 (human, RCTE cells) (human (endogenous in RCTE)) (UniProt P98161). The experiment in a line: co-IP; PC1 immunoprecipitated with NM002 pAb from lysates of polarized RCTE or MO6-G3 cells (5 days post-confluency); lysis buffer 0.5% NP40, 10 mM Tris-HCl pH 7.4, 150 mM NaCl, 5 mM EDTA, 60 mM octylglucoside; 4°C; immunoblot; normal rabbit IgG as negative control. (In general: In western blotting, separated proteins are transferred to a membrane and probed.)

Experiment [2] concerns the target epidermal growth factor receptor (human, RCTE cells) (human (endogenous in RCTE)) (UniProt P00533). In words: co-IP; EGFR immunoprecipitated with Santa Cruz pAb from lysates of polarized RCTE or MO6-G3 cells (5 days post-confluency); lysis buffer 0.5% NP40, 10 mM Tris-HCl pH 7.4, 150 mM NaCl, 5 mM EDTA, 60 mM octylglucoside; 4°C; immunoblot; normal rabbit IgG as negative control.

In experiment [3] the target is polycystin-1 (mouse, MO6-G3 odontoblasts) (mouse (endogenous in MO6-G3)) (UniProt O08852). The experiment in a line: co-IP; PC1 immunoprecipitated with NM002 pAb from lysates of polarized RCTE or MO6-G3 cells (5 days post-confluency); lysis buffer 0.5% NP40, 10 mM Tris-HCl pH 7.4, 150 mM NaCl, 5 mM EDTA, 60 mM octylglucoside; 4°C; immunoblot; normal rabbit IgG as negative control.

In experiment [4] the target is epidermal growth factor receptor (mouse, MO6-G3 odontoblasts) (mouse (endogenous in MO6-G3)) (UniProt Q01279). In words: co-IP; EGFR immunoprecipitated with Santa Cruz pAb from lysates of polarized RCTE or MO6-G3 cells (5 days post-confluency); lysis buffer 0.5% NP40, 10 mM Tris-HCl pH 7.4, 150 mM NaCl, 5 mM EDTA, 60 mM octylglucoside; 4°C; immunoblot; normal rabbit IgG as negative control.

No constants are given. Whether binding was seen depends on the method and setting. In cells and extracts the contact can be indirect. Some entries that bind do so weakly or less than the wild type.

B1: flotillin-2 (human, RCTE cells) (protein, UniProt Q14254 1-428)
chain: MGNCHTVGPNEALVVSGGCCGSDYKQYVFGGWAWAWWCISDTQRISLEIMTLQPRCEDVETAEGVALTVTGVAQVKIMTEKELLAVACEQFLGKNVQDIKNVVLQTLEGHLRSILGTLTVEQIYQDRDQFAKLVREVAAPDVGRMGIEILSFTIKDVYDKVDYLSSLGKTQTAVVQRDADIGVAEAERDAGIREAECKKEMLDVKFMADTKIADSKRAFELQKSAFSEEVNIKTAEAQLAYELQGAREQQKIRQEEIEIEVVQRKKQIAVEAQEILRTDKELIATVRRPAEAEAHRIQQIAEGEKVKQVLLAQAEAEKIRKIGEAEAAVIEAMGKAEAERMKLKAEAYQKYGDAAKMALVLEALPQIAAKIAAPLTKVDEIVVLSGDNSKVTSEVNRLLAELPASVHALTGVDLSKIPLIKKATGVQV
For the molecule B1, the binding entry in experiment [1] and in experiment [2] was “binds” each time.

B2: flotillin-2 (mouse, MO6-G3 odontoblasts) (protein, UniProt Q60634 1-428)
chain: MGNCHTVGPNEALVVSGGCCGSDYKQYVFGGWAWAWWCISDTQRISLEIMTLQPRCEDVETAEGVALTVTGVAQVKIMTEKELLAVACEQFLGKNVQDIKNVVLQTLEGHLRSILGTLTVEQIYQDRDQFAKLVREVAAPDVGRMGIEILSFTIKDVYDKVDYLSSLGKTQTAVVQRDADIGVAEAERDAGIREAECKKEMLDVKFMADTKIADSKRAFELQKSAFSEEVNIKTAEAQLAYELQGAREQQKIRQEEIEIEVVQRKKQIAVEAQEILRTDKELIATVRRPAEAEAHRIQQIAEGEKVKQVLLAQAEAEKIRKIGEAEAAVIEAMGKAEAERMKLKAEAYQKYGDAAKMALVLEALPQIAAKISAPLTKVDEIVVLSGDNSKVTSEVNRLLAELPASVHALTGVDLSKIPLIKNATGAQV
With B2, the binding entry in experiment [3] and in experiment [4] was “binds” throughout.

B3: polycystin-2 (human, RCTE cells) (protein, UniProt Q13563 1-968)
chain: MVNSSRVQPQQPGDAKRPPAPRAPDPGRLMAGCAAVGASLAAPGGLCEQRGLEIEMQRIRQAAARDPPAGAAASPSPPLSSCSRQAWSRDNPGFEAEEEEEEVEGEEGGMVVEMDVEWRPGSRRSAASSAVSSVGARSRGLGGYHGAGHPSGRRRRREDQGPPCPSPVGGGDPLHRHLPLEGQPPRVAWAERLVRGLRGLWGTRLMEESSTNREKYLKSVLRELVTYLLFLIVLCILTYGMMSSNVYYYTRMMSQLFLDTPVSKTEKTNFKTLSSMEDFWKFTEGSLLDGLYWKMQPSNQTEADNRSFIFYENLLLGVPRIRQLRVRNGSCSIPQDLRDEIKECYDVYSVSSEDRAPFGPRNGTAWIYTSEKDLNGSSHWGIIATYSGAGYYLDLSRTREETAAQVASLKKNVWLDRGTRATFIDFSVYNANINLFCVVRLLVEFPATGGVIPSWQFQPLKLIRYVTTFDFFLAACEIIFCFFIFYYVVEEILEIRIHKLHYFRSFWNCLDVVIVVLSVVAIGINIYRTSNVEVLLQFLEDQNTFPNFEHLAYWQIQFNNIAAVTVFFVWIKLFKFINFNRTMSQLSTTMSRCAKDLFGFAIMFFIIFLAYAQLAYLVFGTQVDDFSTFQECIFTQFRIILGDINFAEIEEANRVLGPIYFTTFVFFMFFILLNMFLAIINDTYSEVKSDLAQQKAEMELSDLIRKGYHKALVKLKLKKNTVDDISESLRQGGGKLNFDELRQDLKGKGHTDAEIEAIFTKYDQDGDQELTEHEHQQMRDDLEKEREDLDLDHSSLPRPMSSRSFPRSLDDSEEDDDEDSGHSSRRRGSISSGVSYEEFQVLVRRVDRMEHSIGSIVSKIDAVIVKLEIMERAKLKRREVLGRLLDGVAEDERLGRDSEIHREQMERLVREELERWESDDAASQISHGLGTPVGLNGQPRPRSSRPSSSQSTEGMEGAGGNGSSNVHV
For B3, in experiment [2], the binding result is “binds”.

B4: OFD1 protein (mouse, MO6-G3 odontoblasts) (protein, UniProt Q80Z25 1-1017)
chain: MAQSNMPHKSDVLSQDELRKKLYQTFKDRGVLDTLQTQLRNQLIHELMHPVLSGEVKPPSISVEGSALLIGASNSLVADHLQRCGYEYSLSVFFPESGLAKEKIFTMQDLLQLIRINPSSSLYKSLISGFDKENKKGFLMSFLKELAEYYQAKESCDAETQTSTTFPSQVSLAEKFQLIDAQFADGFPHRSKLESLETKLNEYKKEVQHQLQVEMCHKLKYFREAEITKVKMEERRKYEKELAEFQNEFERTCQAKNEALISQEKNSLERIKKHREMESKEIYAQRQLLLNDIALLRGREAELKERIETFELTQKLQEEKIKSEAEALERREQNLKNIEDTYDQKLKTELLKYQLELKDDYITRTNKLLEEERKNKEKTIHLQEELTVINSKKEELSKSVKHMKEVELELESVKAQFLAISKQNHLLNEKVREMSDYSQLKEEKVELQAQNKLLKLQLEETRNENLRLLDRITQPPPELVIFQKELQKTEKAMELEHKDFETHRQALEKQLQSEIENSAQLRTQIAEYDASVKRLTVQVAELKSQLKQTQIALENEVYRNPKHSLIHSLSGLLLSGKMAPHSEDKSGDFLNVPLEQNKVIAGAVMSRVPPYVNTATEASSPESDFEFIASSTKAKVRELEQEAERLEKAFRTYYQRATQNPSTSPQPAKSPPSVNSVAALRSIASSSMDRPVSAEDRVVSEQPLGDMLKEEMSDMSKAFMGSVVSRPRRTSSSTRLSSTPHPKSRRSLDNEMYLEGLGRLHMTSSSPLLDRVSASPAASPSPCPERTAQASPVPSRHSFSGLPEQNACLYQRQTETQDKSELSNVDKQSLKDEKFEPPFRWNKTEQFEAEGLHPAGDMPGIDFAVATQSSRLISYDYPSAVQSQTGEQDEQELWELHMKERRQREEQRHNERQEALERERRELGKLEQERRMIEESLKMEMEEELEKSVQDQKDKSAHCENTLEKYMKIIQQRQEESNADKSSKKSGKECSLVDMMMPSDKDESSPGFSHEEPDDMW
For the molecule B4, the binding result in experiment [3] and in experiment [4] was “binds” throughout.

B5: polycystin-2 (mouse, MO6-G3 odontoblasts) (protein, UniProt O35245 1-966)
chain: MVNSRRVQPQPPGDAGRSPAPRASGPGRLVAGGAGLAVPGGLGEQRGLEIEMERIRQAAARDPPAGASASPSPPLSSCSRQAWSRDNPGFEAEEDDDDDEVEGEEGGMVVEMDVEWRPGSRRSASSSAVSSVGARGRGLGSYRGAAHLSGRRRRLEDQGAQCPSPAGGGDPLHRHLPLEGQPPRVAWAERLVRGLRGLWGTRLMEESNANREKYLKSVLRELVTYLFFLVVLCILTYGMMSSNVYYYTRTLSQLFIDTPVSKTEKTNFKTLSSMEDFWKFTEGSFLDGLYWKAQTSNHTQADNRSFIFYENLLLGVPRLRQLRVRNGSCSIPQDLRDEIKECYDVYSVSSEDRAPFGPRNGTAWMYTSEKELNGSSHWGIIASYSGAGYYLDLSRTREETAAQLAGLRRNFWLDRGTRAAFIDFSVYNANINLFCVVRLLAEFPATGGVVPSWQFQPVKLIRYVTAFDFFLAACEIIFCFFIIYYVVEEILEIRIHRLSYFRSFWNCLDVVIVVLSVVAMVINIYRMSNAEGLLQFLEDQNSFPNFEHVAYWQIQFNNISAVMVFLVWIKLFKFINFNRTMSQLSTTMSRCAKDLFGFTIMFSIIFLAYAQLAYLVFGTQVDDFSTFQECIFTQFRIILGDINFAEIEEANRVLGPLYFTTFVFFMFFILLNMFLAIINDSYSEVKSDLAQQKAEMELSDLIRKGCQKALVKLKLKRNTVDAISESLRQGGGKLNFDELRQDLKGKGHTDAEIEAIFTKYDQDGDQELTEREHQQMRDDLEKEREDLDLEHSSLPRPMSSRSFPRSLDDSEEEDDEDSGHSSRRRGSISSGVSYEEFQVLVRRVDRMEHSIGSIVSKIDAVIVKLEIMERAKLKRREVLGRLLDGVAEDARLGRDSEIHREQMERLVREELERWESDDAASQTGHGVSTQVGLGGQPHPRNPRPPSSQSAEGLEGGGGNGSANVHA
Turning to B5, the binding entry in experiment [3] and in experiment [4] was “binds” throughout.

B6: OFD1 protein (human, RCTE cells) (protein, UniProt O75665 1-1012)
chain: MMAQSNMFTVADVLSQDELRKKLYQTFKDRGILDTLKTQLRNQLIHELMHPVLSGELQPRSISVEGSSLLIGASNSLVADHLQRCGYEYSLSVFFPESGLAKEKVFTMQDLLQLIKINPTSSLYKSLVSGSDKENQKGFLMHFLKELAEYHQAKESCNMETQTSSTFNRDSLAEKLQLIDDQFADAYPQRIKFESLEIKLNEYKREIEEQLRAEMCQKLKFFKDTEIAKIKMEAKKKYEKELTMFQNDFEKACQAKSEALVLREKSTLERIHKHQEIETKEIYAQRQLLLKDMDLLRGREAELKQRVEAFELNQKLQEEKHKSITEALRRQEQNIKSFEETYDRKLKNELLKYQLELKDDYIIRTNRLIEDERKNKEKAVHLQEELIAINSKKEELNQSVNRVKELELELESVKAQSLAITKQNHMLNEKVKEMSDYSLLKEEKLELLAQNKLLKQQLEESRNENLRLLNRLAQPAPELAVFQKELRKAEKAIVVEHEEFESCRQALHKQLQDEIEHSAQLKAQILGYKASVKSLTTQVADLKLQLKQTQTALENEVYCNPKQSVIDRSVNGLINGNVVPCNGEISGDFLNNPFKQENVLARMVASRITNYPTAWVEGSSPDSDLEFVANTKARVKELQQEAERLEKAFRSYHRRVIKNSAKSPLAAKSPPSLHLLEAFKNITSSSPERHIFGEDRVVSEQPQVGTLEERNDVVEALTGSAASRLRGGTSSRRLSSTPLPKAKRSLESEMYLEGLGRSHIASPSPCPDRMPLPSPTESRHSLSIPPVSSPPEQKVGLYRRQTELQDKSEFSDVDKLAFKDNEEFESSFESAGNMPRQLEMGGLSPAGDMSHVDAAAAAVPLSYQHPSVDQKQIEEQKEEEKIREQQVKERRQREERRQSNLQEVLERERRELEKLYQERKMIEESLKIKIKKELEMENELEMSNQEIKDKSAHSENPLEKYMKIIQQEQDQESADKSSKKMVQEGSLVDTLQSSDKVESLTGFSHEELDDSW
For B6, the binding result in experiment [1] and in experiment [2] was “binds” each time.
